Patent publication US10092526B2, “Compositions and methods for treating respiratory injury or disease” (University of Pittsburgh—Of the Commonwealth System of …, priority 2013, dated 2018)
For at least one compound, name, drawing or mass did not settle the structure.

Test system: H1N1
Test: H1N1 influenza induced lung injury (Example 4)
Assay type: in vivo, mice
Conditions: 30 ug/ml in drinking water, H1N1, day 5, FIG. 6A

c1ccc(-c2ccc(CNCCNCc3ccc(-c4ccccn4)cc3)cc2)nc1 [Compound 005]
lung resistance: decreased
